## Library screen at single concentrations

Protein sequences, listed by entry. Tags and fused reporters are not part of them. Residues count along the entry.
UniProt P9WNZ1, whole entry: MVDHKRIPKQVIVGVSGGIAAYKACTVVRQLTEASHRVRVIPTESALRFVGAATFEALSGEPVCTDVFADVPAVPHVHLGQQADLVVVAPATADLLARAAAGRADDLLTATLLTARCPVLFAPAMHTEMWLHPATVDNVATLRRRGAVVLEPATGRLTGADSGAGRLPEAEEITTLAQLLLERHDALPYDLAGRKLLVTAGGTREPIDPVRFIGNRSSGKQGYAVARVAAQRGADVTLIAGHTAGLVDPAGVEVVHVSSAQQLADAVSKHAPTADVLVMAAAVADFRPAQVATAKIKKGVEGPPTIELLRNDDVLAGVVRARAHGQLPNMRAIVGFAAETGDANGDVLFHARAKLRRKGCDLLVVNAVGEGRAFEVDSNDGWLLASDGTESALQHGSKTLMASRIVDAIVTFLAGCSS
UniProt A4I591, 1-473: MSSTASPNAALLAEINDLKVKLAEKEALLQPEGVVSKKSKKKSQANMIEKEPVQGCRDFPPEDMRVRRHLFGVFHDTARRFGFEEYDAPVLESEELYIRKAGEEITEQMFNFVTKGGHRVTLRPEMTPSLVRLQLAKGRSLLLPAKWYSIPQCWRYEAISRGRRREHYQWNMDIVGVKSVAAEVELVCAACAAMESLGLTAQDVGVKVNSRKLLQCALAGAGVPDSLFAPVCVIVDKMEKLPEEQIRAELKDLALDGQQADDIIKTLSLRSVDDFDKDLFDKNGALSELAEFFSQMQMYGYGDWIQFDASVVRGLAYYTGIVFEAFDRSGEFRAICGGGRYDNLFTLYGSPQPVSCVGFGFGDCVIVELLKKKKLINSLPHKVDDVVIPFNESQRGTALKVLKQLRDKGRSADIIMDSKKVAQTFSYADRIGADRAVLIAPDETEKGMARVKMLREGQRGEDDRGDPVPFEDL

Source: ChEMBL document CHEMBL3988442, “University of Dundee, Small-Polar-MMV Screening Library” (2021).

Results are given as percent effect.
How 0% and 100% were set is not recorded. Most values in the screen are low, and negative values occur.
The compounds are a random part of those screened.

CoaBC: 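Coenzyme A biosynthesis protein CoaBC, Mycobacterium tuberculosis (UniProt P9WNZ1). Enzyme assay of CoaBC with a phosphate dye (Biomol Green) read at 650 nm. Compounds at 30 µM. Higher reads as stronger inhibition, judged from the few compounds that gave an IC50. Most strong results did not repeat in a second test. Of about 67,000 compounds tested this way, about 40 (0.06%) reached 50% or more in at least one test.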
LiHisRS: 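Enzyme assay of histidyl-tRNA synthetase; the read-out is not stated. Target: Histidine-tRNA ligase, Leishmania infantum (UniProt A4I591). Compounds at 30 µM. The record gives no direction; compounds that gave an IC50 in retests scored well above the rest, so higher reads as stronger inhibition. The assay is labelled LdHisRS but filed under L. infantum. Of about 69,000 compounds tested this way, about 410 (0.6%) reached 50% or more in at least one test.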
Leishmania in macrophages: 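Cell assay of Leishmania donovani living inside macrophages; the read-out is not stated. Concentration: 30 µM. Direction is inferred from retests: higher values go with stronger inhibition. Of about 69,000 compounds tested this way, about 1,000 (1.5%) reached 50% or more in at least one test.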

For CCc1ccc(CNCC2CCN(CCO)CC2)cc1 the result was CoaBC: -1.711%; LiHisRS: 4.839%; Leishmania in macrophages: 73.93%.
For Cn1nc(COc2cccnc2)c2c1CCN(Cc1ccco1)C2 the result was CoaBC: -3.055%; LiHisRS: 18.42%.
For CCc1nnc2n1CCN(C(=O)c1ccnc(N(C)C)c1)C2 the result was CoaBC: 3.409%; LiHisRS: 5.357%; Leishmania in macrophages: 7.009%.
For CC(C)N1C(=O)CO[C@H]2CCN(C(=O)c3ccc4c(c3)CCC4)CC[C@@H]21 the result was CoaBC: 1.577%; LiHisRS: 14.49%.
For c1ccc2cc(OCCN3CCn4c(nnc4C4CC4)C3)ccc2c1 the result was CoaBC: -0.6519%; LiHisRS: 14.86%; Leishmania in macrophages: -17.97%.
For Cn1cc(CN2CCC(CCC(=O)NC3CC3)CC2)cn1 the result was CoaBC: 3.672%; LiHisRS: 0%; Leishmania in macrophages: -5.032%.
For CCN(c1ccc(C(=O)NCc2ccnc(C)n2)cc1)C(C)C the result was CoaBC: 3.187%; LiHisRS: 21.92%; Leishmania in macrophages: 12.86%.
For O=C(CO)N1CC[C@@H](N2CCN(c3ccccc3F)CC2)[C@H](O)C1 the result was CoaBC: -1.098%; LiHisRS: 21.98%; Leishmania in macrophages: 0.3585%.
For COCCNc1ccc(CC2CCCN(C3CCOCC3)C2)nn1 (stereo not given) the result was CoaBC: -0.4932%; LiHisRS: 5.634%; Leishmania in macrophages: 21.43%.
For CC(C)(C)NC(=O)c1cccc(CN2CCS(=O)(=O)CC2)c1 the result was CoaBC: 0.3632%; LiHisRS: 5.435%; Leishmania in macrophages: 61.43%.
For c1c(CN2CCCCC2)nc2n1CCNC2 the result was CoaBC: -0.4878%; LiHisRS: -2.521%.
For CNC(=O)CN1CCCC12CCN(C(=O)c1ccsc1)CC2 the result was CoaBC: 3.386%; LiHisRS: 34.15%.
For Cc1cc(C)nc(NC2CCC(=O)N(C)C2)n1 (stereo not given) the result was CoaBC: 3.165%; LiHisRS: 9.091%; Leishmania in macrophages: 20.43%.
For Cc1n[nH]c(C)c1Sc1ccccc1NC(=O)CN1CCCC1 the result was CoaBC: 0.4914%; LiHisRS: 8.602%; Leishmania in macrophages: 13.17%.
For CS(=O)(=O)N1CCN(C(=O)c2cncs2)CC(C(N)=O)C1 (stereo not given) the result was CoaBC: 8.475%; LiHisRS: 13.99%; Leishmania in macrophages: 9.579%.
For CN(C)C(C(=O)N1CCN(CCn2cccc2)CC1)c1cccc(F)c1 (stereo not given) the result was CoaBC: 1.597%; LiHisRS: 17.05%; Leishmania in macrophages: 9.284%.
For CCc1ncnc2c1CCN(S(=O)(=O)CC)CC2 the result was CoaBC: -3.589%; LiHisRS: 15.84%; Leishmania in macrophages: 15.48%.
For Cc1ccc(CN2CCCC3(CCN(Cc4ccc(C)o4)C3)C2)o1 (stereo not given) the result was CoaBC: 3.832%; LiHisRS: 15%; Leishmania in macrophages: 47.15%.
For COCC(NC(=O)c1cn(-c2cccc(Cl)c2F)nn1)C1CC1 (stereo not given) the result was CoaBC: 2.658%; LiHisRS: 20%; Leishmania in macrophages: 8.483%.
For CC(C)CNC(=O)CN(Cc1ccc(F)cc1)S(C)(=O)=O the result was CoaBC: 3.641%; LiHisRS: 11.9%; Leishmania in macrophages: -12.17%.
For CC(=O)NCCCC(=O)NC(C)c1nnc2n1CCC2 (stereo not given) the result was CoaBC: 2.628%; LiHisRS: 0%; Leishmania in macrophages: 13.64%.
For CNC(=O)CCc1cc(C2CCCN2C(=O)CO)nc(C)n1 (stereo not given) the result was CoaBC: -2.055%; LiHisRS: 10.74%; Leishmania in macrophages: 4.305%.
For Cc1ncc2c(n1)CN(CC(=O)Nc1ccc(Cl)cn1)CC2 the result was CoaBC: 4.961%; LiHisRS: 25.86%; Leishmania in macrophages: 38.35%.
For Cc1ccc(-c2ccnc(NCC(O)c3ccc(O)cc3)n2)c(C)n1 (stereo not given) the result was CoaBC: 4.153%; LiHisRS: 15.05%; Leishmania in macrophages: 10.79%.
For CC1CCN(C(=O)[C@H]2C[C@@H]3CCN(CC4CCOCC4)C[C@@H]3O2)CC1 the result was CoaBC: 12.09%; LiHisRS: 12%.
For CCCOc1c(Cl)cc(C(=O)N2CCOC23CCN(C)CC3)cc1Cl the result was CoaBC: 2.058%; LiHisRS: 1.087%; Leishmania in macrophages: 88.42%.
For CC(C)C1=NOC2(CCN(C(=O)C3CCCC3)CC2)C1 the result was CoaBC: 3.158%; LiHisRS: -1.379%; Leishmania in macrophages: 0.1362%.
For CC(C)CCN1CCCC(Cn2cc(CCO)nn2)C1 (stereo not given) the result was CoaBC: 2.381%; LiHisRS: 5.556%; Leishmania in macrophages: 12.73%.
For Cc1cccc(C(C(=O)N2CCN(C(=O)c3ccc[nH]3)CC2)N(C)C)c1 (stereo not given) the result was CoaBC: -0.2445%; LiHisRS: 21.92%; Leishmania in macrophages: -95.27%.
For CCN(CC)c1ncc(CNC2CCc3nc(C)nn3C2)s1 (stereo not given) the result was CoaBC: -1.786%; LiHisRS: 6.25%; Leishmania in macrophages: 2.581%.
For CCOC1CCN(C(=O)c2cc(-c3ccc(Cl)cc3)on2)CC1 the result was CoaBC: -1.474%; LiHisRS: 13.21%; Leishmania in macrophages: 13.87%.
For O=C(NCC1CC1)C1CN(C(=O)c2ccncc2)CC12CCOCC2 (stereo not given) the result was CoaBC: 2.408%; LiHisRS: 12.62%; Leishmania in macrophages: -2.84%.
For CC(=O)c1ccc(CN2CCCC23CCN(c2ccccn2)CC3)cc1 the result was CoaBC: 4.598%; LiHisRS: 18.18%; Leishmania in macrophages: -6.374%.

Some entries from above, unchanged:

Result for CCN(CC)c1ncc(CNC2CCc3nc(C)nn3C2)s1 (stereo not given) was CoaBC: -1.786%; LiHisRS: 6.25%; Leishmania in macrophages: 2.581%.
Result for CC(C)CCN1CCCC(Cn2cc(CCO)nn2)C1 (stereo not given) was CoaBC: 2.381%; LiHisRS: 5.556%; Leishmania in macrophages: 12.73%.